Measured values published in the supplement of paper PMC10849652.
The list shows a part of the results.

Sequences of proteins named here, by UniProt entry; tags and fusion partners are left off. A change or cut given only in a name is not applied to a line headed by its entry.
UniProt Q8N3X1: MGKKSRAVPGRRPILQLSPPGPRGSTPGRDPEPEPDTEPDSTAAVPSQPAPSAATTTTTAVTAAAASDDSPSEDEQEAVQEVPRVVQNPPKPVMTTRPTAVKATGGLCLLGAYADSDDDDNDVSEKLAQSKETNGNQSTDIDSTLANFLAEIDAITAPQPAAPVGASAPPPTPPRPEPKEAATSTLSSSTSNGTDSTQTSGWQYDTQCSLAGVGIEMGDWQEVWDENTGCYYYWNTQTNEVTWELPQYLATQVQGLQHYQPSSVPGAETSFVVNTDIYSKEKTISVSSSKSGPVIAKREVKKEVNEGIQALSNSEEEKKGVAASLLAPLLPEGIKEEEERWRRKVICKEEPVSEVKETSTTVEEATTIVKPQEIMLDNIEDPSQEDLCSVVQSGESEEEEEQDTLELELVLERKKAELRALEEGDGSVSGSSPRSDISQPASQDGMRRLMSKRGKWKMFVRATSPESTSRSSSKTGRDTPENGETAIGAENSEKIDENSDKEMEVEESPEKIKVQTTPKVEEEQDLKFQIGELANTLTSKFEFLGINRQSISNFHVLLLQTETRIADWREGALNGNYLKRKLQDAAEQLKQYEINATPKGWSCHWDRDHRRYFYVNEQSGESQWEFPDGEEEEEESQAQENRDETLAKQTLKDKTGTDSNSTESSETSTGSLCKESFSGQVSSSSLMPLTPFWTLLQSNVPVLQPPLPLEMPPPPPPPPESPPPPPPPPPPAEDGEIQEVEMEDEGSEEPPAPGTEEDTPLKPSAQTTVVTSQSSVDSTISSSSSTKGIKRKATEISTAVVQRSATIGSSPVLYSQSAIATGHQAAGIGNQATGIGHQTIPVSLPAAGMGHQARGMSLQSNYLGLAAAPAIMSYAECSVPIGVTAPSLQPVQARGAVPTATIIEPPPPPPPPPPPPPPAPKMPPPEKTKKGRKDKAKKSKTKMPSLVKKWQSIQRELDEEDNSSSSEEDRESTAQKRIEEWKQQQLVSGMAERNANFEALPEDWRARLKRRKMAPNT
UniProt Q96AC1: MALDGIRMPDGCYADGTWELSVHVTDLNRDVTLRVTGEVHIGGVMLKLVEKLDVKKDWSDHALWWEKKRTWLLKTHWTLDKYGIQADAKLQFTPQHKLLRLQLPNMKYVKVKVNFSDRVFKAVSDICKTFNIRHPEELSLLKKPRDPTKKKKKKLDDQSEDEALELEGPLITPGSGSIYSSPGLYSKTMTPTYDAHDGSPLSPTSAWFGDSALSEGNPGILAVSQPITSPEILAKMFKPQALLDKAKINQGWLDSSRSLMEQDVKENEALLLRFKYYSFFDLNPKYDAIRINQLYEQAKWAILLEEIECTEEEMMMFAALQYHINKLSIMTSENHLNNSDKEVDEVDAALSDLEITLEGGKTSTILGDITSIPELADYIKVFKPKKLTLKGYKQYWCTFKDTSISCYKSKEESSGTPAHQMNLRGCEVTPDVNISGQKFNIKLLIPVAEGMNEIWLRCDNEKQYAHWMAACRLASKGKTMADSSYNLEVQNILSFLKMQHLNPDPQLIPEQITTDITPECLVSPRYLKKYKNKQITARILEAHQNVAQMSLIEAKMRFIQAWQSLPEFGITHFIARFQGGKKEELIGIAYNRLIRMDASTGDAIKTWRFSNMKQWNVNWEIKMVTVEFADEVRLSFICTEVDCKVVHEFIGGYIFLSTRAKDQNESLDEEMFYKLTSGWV
UniProt Q9H479: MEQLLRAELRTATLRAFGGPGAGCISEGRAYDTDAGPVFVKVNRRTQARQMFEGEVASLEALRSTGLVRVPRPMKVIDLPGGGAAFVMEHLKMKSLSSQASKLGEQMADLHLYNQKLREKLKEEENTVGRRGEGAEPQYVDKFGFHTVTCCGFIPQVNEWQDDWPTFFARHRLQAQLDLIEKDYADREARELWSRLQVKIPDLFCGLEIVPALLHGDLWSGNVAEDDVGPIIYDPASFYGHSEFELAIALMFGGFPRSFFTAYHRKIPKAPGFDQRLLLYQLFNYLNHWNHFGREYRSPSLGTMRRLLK
UniProt Q9HA64: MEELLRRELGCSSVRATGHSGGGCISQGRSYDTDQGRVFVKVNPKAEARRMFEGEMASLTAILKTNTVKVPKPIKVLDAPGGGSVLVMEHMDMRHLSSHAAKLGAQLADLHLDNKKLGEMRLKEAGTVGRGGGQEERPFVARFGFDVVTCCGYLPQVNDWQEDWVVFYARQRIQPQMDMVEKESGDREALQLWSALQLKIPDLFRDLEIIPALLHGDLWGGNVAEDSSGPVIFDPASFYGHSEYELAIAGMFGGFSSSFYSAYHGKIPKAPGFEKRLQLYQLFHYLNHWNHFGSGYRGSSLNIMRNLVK
UniProt Q14254: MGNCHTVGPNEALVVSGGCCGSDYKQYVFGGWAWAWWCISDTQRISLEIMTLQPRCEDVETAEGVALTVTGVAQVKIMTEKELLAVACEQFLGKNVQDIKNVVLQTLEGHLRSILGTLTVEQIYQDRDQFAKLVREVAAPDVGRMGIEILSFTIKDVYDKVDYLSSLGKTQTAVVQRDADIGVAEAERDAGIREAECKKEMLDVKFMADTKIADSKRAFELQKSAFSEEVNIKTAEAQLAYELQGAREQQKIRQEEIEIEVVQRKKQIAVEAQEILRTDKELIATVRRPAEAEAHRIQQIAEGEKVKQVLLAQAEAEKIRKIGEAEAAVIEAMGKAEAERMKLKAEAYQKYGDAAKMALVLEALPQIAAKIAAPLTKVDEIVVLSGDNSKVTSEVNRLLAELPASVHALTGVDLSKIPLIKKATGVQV
UniProt Q8NFF5: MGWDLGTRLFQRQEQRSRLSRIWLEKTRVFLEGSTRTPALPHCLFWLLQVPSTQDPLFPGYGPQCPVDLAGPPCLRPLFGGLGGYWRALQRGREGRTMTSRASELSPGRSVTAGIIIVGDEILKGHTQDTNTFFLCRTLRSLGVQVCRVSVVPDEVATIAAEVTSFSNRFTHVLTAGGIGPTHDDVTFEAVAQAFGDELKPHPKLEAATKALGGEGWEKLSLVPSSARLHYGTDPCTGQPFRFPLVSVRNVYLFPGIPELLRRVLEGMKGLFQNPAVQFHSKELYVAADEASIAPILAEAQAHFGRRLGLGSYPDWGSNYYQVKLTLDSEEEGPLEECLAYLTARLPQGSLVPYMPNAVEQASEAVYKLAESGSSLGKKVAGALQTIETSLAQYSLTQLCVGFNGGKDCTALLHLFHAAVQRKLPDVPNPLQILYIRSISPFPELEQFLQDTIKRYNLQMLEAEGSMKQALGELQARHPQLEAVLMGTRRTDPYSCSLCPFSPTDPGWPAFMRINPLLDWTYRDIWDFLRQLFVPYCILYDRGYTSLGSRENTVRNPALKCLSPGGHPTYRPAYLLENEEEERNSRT
UniProt Q13045: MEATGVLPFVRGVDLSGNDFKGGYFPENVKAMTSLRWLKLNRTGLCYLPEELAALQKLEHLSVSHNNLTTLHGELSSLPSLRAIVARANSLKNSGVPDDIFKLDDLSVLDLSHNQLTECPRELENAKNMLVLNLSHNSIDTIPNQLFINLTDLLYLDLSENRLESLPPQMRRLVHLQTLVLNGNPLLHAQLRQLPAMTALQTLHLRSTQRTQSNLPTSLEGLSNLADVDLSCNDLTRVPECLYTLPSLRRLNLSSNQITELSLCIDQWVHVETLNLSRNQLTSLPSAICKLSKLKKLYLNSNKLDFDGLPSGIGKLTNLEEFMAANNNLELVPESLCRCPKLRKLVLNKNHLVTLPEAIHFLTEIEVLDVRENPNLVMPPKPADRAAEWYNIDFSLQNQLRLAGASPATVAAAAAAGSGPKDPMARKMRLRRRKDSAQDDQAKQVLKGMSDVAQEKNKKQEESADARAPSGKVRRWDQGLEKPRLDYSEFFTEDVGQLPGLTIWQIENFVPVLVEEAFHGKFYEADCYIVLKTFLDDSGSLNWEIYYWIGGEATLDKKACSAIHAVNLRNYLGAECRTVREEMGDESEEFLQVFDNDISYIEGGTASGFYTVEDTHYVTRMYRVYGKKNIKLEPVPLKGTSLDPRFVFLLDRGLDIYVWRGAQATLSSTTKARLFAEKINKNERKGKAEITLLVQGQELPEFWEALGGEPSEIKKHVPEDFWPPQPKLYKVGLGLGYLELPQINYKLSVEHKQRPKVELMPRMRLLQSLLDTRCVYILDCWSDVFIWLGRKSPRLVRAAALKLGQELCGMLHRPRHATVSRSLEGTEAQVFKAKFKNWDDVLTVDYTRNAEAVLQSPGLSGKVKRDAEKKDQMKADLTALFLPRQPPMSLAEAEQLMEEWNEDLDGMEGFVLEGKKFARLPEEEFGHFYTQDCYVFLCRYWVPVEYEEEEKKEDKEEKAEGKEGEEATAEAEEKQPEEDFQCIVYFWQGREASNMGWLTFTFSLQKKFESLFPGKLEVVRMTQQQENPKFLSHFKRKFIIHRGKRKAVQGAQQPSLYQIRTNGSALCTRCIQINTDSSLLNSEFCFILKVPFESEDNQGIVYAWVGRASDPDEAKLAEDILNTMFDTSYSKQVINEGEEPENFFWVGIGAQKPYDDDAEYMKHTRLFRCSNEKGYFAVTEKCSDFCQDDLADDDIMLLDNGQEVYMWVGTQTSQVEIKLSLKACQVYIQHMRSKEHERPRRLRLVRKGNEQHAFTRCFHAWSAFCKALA
UniProt P31995: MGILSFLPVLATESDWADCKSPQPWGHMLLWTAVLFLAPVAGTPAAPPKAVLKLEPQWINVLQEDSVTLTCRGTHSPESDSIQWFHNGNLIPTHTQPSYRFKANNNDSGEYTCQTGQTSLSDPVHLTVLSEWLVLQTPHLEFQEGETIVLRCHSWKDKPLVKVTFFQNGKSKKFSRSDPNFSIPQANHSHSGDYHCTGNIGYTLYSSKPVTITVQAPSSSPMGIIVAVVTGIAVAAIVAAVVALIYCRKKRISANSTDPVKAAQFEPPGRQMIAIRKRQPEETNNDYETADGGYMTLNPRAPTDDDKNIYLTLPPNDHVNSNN
UniProt P26885: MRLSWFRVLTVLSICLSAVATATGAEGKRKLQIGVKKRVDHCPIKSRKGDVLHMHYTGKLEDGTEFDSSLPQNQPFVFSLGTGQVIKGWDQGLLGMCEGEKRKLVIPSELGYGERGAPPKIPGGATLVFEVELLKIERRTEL
UniProt Q14192: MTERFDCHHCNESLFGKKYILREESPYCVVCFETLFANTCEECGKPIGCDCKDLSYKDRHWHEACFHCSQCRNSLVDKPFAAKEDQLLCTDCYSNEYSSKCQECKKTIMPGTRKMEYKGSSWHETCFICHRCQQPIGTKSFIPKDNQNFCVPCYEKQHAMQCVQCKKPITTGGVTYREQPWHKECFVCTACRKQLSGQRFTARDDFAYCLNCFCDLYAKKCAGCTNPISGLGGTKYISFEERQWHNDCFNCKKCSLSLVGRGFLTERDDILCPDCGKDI
UniProt Q8WVX9: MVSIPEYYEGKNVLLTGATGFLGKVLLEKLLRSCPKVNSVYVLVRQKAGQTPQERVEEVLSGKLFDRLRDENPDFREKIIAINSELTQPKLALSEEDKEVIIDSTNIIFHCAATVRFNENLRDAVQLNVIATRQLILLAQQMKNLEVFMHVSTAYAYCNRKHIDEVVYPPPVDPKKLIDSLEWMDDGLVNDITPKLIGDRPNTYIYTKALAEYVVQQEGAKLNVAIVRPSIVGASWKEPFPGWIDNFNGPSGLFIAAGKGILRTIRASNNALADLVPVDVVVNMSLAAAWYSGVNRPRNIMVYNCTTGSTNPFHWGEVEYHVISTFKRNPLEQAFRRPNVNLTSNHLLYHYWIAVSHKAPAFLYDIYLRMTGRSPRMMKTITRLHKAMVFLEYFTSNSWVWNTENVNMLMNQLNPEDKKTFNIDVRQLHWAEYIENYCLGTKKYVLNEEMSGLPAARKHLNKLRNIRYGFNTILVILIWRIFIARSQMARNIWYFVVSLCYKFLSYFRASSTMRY
UniProt P23142: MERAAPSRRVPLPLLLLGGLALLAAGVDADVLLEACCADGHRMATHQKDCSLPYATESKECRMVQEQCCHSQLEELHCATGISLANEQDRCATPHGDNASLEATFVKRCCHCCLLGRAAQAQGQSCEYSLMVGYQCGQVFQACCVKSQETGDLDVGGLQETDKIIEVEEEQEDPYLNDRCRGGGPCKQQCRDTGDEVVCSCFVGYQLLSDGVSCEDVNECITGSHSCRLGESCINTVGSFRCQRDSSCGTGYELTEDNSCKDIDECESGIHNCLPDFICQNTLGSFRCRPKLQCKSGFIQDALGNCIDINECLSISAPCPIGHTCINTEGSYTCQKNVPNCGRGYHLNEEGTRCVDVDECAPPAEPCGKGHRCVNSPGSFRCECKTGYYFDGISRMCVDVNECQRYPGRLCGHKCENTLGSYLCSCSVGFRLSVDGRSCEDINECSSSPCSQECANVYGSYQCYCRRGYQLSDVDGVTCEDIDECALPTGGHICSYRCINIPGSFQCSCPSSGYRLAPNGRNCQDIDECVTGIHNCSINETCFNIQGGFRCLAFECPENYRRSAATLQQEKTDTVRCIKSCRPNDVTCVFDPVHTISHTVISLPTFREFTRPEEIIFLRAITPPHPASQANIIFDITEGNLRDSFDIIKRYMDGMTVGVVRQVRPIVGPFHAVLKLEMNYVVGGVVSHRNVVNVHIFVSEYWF

Each target was assayed with C[C@@H]1COCCN1C2=NC(=NC(=C2)C3(CC3)S(=O)(=O)C)C4=C5C=CNC5=CC=C4 (assay: log2 fold change, soluble protein after heating vs DMSO (PISA); higher = thermal stabilisation; K562 cells, 10 uM, 30 min; active = over 0.2 and 3.5 SD of the protein, either way, in both replicates (recomputed)).
Procedure, shortened: (§1)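 K562 cells at 2×10^6 cells/mL were treated for 30 min with 10 μM compound, and aliquots were heated for 3 min over 48°C-58°C before pooling. Extraction used PBS with 0.5% NP-40 at 4°C, and soluble protein was the supernatant after 21,000xg for 90 min, measured by TMTpro 16plex LC-MS/MS with channel sums equalised. Thermal stability values, relative to control samples and from duplicates, are log2 fold changes.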

log2 fold change, inactive:
FBXO22 (UniProt Q8NEZ5) 0.023
FNBP4 isoform 2 (UniProt Q8N3X1) -0.005
FGFR1OP (UniProt O95684) -0.008
FCSK isoform 2 (UniProt Q8N0W3) 0.06
FAM76B (UniProt Q5HYJ3) -0.024
FLVCR1 (UniProt Q9Y5Y0) 0.117
FAM98A (UniProt Q8NCA5) -0.252
FERMT2 isoform 3 (UniProt Q96AC1) 0.008
FN3K (UniProt Q9H479) 0
FEM1B (UniProt Q9UK73) -0.063
FN1 isoform 1 (UniProt P02751) 0.037
FN3KRP (UniProt Q9HA64) 0.013
FIP1L1 (UniProt Q6UN15) -0.074
FLYWCH2 (UniProt Q96CP2) 0.047
FDX1 (UniProt P10109) -0.012
FLOT2 (UniProt Q14254) -0.132
FAM98B (UniProt Q52LJ0) -0.008
FLOT1 (UniProt O75955) -0.354
FBXO5 (UniProt Q9UKT4) -0.04
FLT4 (UniProt P35916) 0.427
FLAD1 (UniProt Q8NFF5) 0.043
FLII (UniProt Q13045) 0.035
FLNB isoform 8 (UniProt O75369) 0.046
FLNC (UniProt Q14315) 0.041
FCGR2C (UniProt P31995) 0.022
FKBP5 (UniProt Q13451) 0.005
FKBP2 (UniProt P26885) 0.057
FHL2 (UniProt Q14192) -0.03
FAM210A (UniProt Q96ND0) 0.008
FAM32A (UniProt Q9Y421) -0.17
FARSB (UniProt Q9NSD9) 0.036
FAM78A (UniProt Q5JUQ0) 0.049
FKBP9 (UniProt O95302) -0.031
FAR1 (UniProt Q8WVX9) 0.003
FBXO30 (UniProt Q8TB52) 0.151
FKBP15 (UniProt Q5T1M5) -0.026
FBLN1 (UniProt P23142) 0.052

What follows are targets tested with C[C@H](C1=CC=C(C=C1)C(=O)NC2=C3C=CNC3=NC=C2)N in the same assay as above.
Procedure, shortened: as §1

log2 fold change, inactive:
FBXO22 (UniProt Q8NEZ5) -0.061
FNBP4 isoform 2 (UniProt Q8N3X1) -0.054
FGFR1OP (UniProt O95684) -0.02
FCSK isoform 2 (UniProt Q8N0W3) -0.022
FAM76B (UniProt Q5HYJ3) 0.018
FLVCR1 (UniProt Q9Y5Y0) -0.007
FAM98A (UniProt Q8NCA5) 0.32
FERMT2 isoform 3 (UniProt Q96AC1) 0.143
FN3K (UniProt Q9H479) -0.023
FEM1B (UniProt Q9UK73) 0.001
FN1 isoform 1 (UniProt P02751) 0.01
FN3KRP (UniProt Q9HA64) -0.087
FIP1L1 (UniProt Q6UN15) -0.02
FLYWCH2 (UniProt Q96CP2) -0.095
FDX1 (UniProt P10109) -0.049
FLOT2 (UniProt Q14254) 0.251
FAM98B (UniProt Q52LJ0) 0.04
FLOT1 (UniProt O75955) 0.413
FBXO5 (UniProt Q9UKT4) -0.082
FLT4 (UniProt P35916) -0.06
FLAD1 (UniProt Q8NFF5) -0.039
FLII (UniProt Q13045) 0.03
FLNB isoform 8 (UniProt O75369) -0.049
FLNC (UniProt Q14315) -0.023
FCGR2C (UniProt P31995) -0.11
FKBP5 (UniProt Q13451) 0.086
FKBP2 (UniProt P26885) -0.011
FHL2 (UniProt Q14192) 0.004
FAM210A (UniProt Q96ND0) -0.058
FAM32A (UniProt Q9Y421) 0.156
FARSB (UniProt Q9NSD9) 0.022
FAM78A (UniProt Q5JUQ0) 0.291
FKBP9 (UniProt O95302) 0.106
FAR1 (UniProt Q8WVX9) -0.042
FBXO30 (UniProt Q8TB52) -0.053
FKBP15 (UniProt Q5T1M5) 0.046
FBLN1 (UniProt P23142) 0.129
